Assay in all cases: log2 fold change, soluble protein after heating vs DMSO (PISA); higher = thermal stabilisation; K562 lysate, 10 uM; active = over 0.2 and 3.5 SD of the protein, either way, in both replicates (recomputed)
Compound in experiment [1]: NCC(=O)Nc1ccc(-n2nc(C(F)(F)F)cc2-c2ccc3c(ccc4ccccc43)c2)cc1
Summed up:
(§1)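 To prepare the extract, K562 pellets were dounce-homogenised in PBS pH 7.4 with 1 mM MgCl2, giving crude material at 1 mg/mL protein. This was treated with 10 μM compound for 30 min, then heated in aliquots for 3 min over 48°C-58°C before pooling and addition of NP-40 to 0.5% at 4°C. Centrifugation at 21,000xg for 90 min left soluble protein in the supernatant, which TMTpro 16plex LC-MS/MS quantified with equalised channel sums. Results are log-two fold changes in thermal stability compared with solvent controls, from duplicates.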

Chains of the proteins cited; added tags and fusions are not shown. Lines headed by an entry give the natural chain unless they say otherwise; changes in a name come on top.
UniProt Q8WUY8: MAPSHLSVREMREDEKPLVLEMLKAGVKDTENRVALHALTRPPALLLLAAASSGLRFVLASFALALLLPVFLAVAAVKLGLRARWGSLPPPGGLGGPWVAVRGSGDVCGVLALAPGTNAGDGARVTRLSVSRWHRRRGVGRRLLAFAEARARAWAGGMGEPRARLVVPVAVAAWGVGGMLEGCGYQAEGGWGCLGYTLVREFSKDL
UniProt Q96DR8: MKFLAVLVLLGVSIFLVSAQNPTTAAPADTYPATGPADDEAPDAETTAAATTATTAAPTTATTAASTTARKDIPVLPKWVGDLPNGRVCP
UniProt Q8TBE9: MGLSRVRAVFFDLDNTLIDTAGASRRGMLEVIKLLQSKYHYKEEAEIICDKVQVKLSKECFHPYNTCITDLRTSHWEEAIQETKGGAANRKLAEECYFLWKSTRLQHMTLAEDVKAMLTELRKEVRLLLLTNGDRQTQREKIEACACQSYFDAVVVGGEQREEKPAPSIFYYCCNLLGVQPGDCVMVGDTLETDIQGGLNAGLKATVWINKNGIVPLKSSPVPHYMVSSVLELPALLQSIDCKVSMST
NBDY, A0A0U1RRE5, UniProt A0A0U1RRE5, whole entry, looked up: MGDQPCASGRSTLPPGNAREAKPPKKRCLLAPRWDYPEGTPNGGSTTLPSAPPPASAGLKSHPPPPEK
UniProt P43490: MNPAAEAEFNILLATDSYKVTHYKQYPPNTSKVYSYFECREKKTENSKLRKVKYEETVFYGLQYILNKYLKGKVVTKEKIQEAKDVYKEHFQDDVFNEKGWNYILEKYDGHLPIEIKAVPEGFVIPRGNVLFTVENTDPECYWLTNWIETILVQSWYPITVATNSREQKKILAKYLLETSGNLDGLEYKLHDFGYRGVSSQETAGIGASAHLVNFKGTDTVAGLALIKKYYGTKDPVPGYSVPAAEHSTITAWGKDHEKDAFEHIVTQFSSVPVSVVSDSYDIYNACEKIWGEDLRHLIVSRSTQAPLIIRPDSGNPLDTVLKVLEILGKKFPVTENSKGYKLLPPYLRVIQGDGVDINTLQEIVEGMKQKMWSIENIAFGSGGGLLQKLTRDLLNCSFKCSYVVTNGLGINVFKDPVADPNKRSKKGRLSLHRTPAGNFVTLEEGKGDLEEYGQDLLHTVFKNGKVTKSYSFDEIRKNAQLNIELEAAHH
UniProt Q9BXJ9: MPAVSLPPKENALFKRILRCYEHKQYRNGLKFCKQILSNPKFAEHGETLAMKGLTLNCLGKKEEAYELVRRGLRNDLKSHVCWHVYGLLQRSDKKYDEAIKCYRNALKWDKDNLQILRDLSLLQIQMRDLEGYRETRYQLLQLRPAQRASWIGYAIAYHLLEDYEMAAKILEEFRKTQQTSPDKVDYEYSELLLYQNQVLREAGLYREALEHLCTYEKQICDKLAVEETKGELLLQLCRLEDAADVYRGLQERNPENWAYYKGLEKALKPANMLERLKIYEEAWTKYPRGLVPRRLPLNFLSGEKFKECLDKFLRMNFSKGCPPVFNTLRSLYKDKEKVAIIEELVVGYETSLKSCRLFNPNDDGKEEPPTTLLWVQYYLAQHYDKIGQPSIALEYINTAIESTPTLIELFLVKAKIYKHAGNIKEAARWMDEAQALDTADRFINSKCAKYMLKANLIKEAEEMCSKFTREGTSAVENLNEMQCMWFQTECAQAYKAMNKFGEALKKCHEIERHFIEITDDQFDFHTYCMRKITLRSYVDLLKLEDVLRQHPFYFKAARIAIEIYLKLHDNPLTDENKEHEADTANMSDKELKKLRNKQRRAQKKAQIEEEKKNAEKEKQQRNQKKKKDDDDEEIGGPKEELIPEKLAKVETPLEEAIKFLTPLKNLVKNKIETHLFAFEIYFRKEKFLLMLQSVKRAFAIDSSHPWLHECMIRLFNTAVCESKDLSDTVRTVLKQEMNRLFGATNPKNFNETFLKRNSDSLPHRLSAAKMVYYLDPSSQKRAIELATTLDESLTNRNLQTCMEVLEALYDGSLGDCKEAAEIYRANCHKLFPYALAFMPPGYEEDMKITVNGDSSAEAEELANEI
UniProt Q86UW6: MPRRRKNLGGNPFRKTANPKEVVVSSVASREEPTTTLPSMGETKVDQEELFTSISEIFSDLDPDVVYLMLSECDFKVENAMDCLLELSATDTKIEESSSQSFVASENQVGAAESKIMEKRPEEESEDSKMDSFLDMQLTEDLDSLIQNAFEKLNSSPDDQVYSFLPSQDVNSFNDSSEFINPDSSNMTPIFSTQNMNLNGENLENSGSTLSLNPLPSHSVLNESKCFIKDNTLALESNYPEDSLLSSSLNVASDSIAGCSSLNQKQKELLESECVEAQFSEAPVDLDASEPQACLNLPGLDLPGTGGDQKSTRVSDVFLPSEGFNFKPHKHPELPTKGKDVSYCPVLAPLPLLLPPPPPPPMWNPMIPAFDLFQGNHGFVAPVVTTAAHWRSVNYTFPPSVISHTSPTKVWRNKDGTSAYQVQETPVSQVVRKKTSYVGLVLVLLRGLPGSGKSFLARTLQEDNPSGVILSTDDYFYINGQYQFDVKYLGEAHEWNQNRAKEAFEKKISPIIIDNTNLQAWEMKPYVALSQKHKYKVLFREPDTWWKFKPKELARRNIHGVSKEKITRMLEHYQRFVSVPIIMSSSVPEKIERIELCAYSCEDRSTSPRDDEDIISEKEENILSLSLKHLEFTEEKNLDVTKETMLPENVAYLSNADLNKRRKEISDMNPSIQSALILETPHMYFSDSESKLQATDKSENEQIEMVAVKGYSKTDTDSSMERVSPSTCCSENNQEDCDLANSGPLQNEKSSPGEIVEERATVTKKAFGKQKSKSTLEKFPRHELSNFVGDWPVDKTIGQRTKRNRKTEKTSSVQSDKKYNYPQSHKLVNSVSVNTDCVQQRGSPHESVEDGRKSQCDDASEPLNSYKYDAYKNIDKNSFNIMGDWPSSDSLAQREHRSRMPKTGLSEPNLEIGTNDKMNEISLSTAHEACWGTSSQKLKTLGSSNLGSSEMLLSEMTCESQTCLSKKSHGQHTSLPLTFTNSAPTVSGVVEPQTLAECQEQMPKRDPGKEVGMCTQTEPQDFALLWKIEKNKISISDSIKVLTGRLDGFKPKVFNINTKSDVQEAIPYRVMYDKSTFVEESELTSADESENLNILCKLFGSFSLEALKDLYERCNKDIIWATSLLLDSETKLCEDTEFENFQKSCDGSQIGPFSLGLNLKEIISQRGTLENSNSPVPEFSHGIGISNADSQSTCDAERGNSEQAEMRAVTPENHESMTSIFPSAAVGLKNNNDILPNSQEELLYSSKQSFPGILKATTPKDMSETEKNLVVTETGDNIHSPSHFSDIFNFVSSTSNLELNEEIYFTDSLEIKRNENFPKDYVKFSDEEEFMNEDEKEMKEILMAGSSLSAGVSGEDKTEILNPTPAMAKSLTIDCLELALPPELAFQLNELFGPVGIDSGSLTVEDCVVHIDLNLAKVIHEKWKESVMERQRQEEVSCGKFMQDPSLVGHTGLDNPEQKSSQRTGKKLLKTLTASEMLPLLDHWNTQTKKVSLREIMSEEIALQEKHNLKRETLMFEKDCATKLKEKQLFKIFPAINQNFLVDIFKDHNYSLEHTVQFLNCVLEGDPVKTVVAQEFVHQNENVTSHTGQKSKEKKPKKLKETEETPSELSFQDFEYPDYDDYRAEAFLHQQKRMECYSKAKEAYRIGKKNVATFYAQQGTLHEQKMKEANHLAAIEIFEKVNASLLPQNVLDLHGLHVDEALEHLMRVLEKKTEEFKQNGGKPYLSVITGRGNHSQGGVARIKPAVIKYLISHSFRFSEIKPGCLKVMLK
UniProt P19338, whole entry, looked up: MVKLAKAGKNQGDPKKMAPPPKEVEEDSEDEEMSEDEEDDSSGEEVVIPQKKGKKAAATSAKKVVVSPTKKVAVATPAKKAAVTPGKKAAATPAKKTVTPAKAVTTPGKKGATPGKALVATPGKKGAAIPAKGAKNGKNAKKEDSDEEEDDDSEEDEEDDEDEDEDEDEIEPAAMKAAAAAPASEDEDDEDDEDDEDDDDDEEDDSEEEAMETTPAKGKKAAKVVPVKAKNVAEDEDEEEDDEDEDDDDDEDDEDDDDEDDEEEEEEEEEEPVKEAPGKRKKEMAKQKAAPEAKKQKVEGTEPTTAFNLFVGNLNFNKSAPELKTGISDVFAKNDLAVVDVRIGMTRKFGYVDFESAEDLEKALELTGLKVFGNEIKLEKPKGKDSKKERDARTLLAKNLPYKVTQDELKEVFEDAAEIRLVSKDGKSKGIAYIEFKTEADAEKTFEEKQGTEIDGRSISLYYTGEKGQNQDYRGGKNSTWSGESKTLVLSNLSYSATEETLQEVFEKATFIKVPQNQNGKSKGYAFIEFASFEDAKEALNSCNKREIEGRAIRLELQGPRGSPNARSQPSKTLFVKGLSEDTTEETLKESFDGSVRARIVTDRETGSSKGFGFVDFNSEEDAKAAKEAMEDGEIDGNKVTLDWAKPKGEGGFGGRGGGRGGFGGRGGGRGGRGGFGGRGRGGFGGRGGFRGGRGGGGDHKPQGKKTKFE
UniProt P61599, whole entry, looked up: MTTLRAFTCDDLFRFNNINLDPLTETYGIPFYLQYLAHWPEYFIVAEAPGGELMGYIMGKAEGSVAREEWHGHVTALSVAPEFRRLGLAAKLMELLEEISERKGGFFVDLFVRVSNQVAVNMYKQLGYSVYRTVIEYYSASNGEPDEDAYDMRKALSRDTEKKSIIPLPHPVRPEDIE
UniProt Q9UM54, whole entry, looked up: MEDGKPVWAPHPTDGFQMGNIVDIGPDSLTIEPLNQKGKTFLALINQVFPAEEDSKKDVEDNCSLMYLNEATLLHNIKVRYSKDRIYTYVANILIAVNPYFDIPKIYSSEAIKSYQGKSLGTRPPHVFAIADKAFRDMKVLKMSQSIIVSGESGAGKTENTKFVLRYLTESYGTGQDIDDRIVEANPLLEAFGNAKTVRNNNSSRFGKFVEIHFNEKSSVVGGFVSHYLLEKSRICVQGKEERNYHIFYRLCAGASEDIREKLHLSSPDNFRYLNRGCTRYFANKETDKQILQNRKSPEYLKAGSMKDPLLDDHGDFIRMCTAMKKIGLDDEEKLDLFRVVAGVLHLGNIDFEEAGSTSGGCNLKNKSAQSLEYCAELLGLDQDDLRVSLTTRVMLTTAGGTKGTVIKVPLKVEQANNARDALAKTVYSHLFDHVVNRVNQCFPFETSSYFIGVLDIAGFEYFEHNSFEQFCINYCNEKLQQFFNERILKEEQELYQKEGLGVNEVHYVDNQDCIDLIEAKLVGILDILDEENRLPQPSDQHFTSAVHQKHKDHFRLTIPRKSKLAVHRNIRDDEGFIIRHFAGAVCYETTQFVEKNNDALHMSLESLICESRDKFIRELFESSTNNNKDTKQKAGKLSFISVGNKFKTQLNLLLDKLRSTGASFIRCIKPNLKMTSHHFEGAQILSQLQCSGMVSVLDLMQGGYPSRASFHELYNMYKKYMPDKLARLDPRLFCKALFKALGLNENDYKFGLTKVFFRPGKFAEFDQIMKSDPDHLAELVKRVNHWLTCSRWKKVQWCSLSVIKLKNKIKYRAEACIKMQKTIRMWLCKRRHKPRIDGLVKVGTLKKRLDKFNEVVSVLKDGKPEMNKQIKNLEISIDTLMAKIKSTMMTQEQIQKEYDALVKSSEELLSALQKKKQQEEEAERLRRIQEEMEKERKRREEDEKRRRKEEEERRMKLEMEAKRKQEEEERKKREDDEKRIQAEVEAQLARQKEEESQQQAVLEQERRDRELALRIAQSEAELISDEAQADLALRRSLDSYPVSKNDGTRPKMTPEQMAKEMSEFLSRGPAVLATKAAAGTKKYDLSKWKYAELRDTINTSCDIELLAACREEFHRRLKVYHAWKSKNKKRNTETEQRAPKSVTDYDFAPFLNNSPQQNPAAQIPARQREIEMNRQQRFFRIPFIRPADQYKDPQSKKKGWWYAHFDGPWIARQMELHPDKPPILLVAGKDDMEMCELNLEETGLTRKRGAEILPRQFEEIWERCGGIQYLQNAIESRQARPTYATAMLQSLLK
UniProt Q9NPC7: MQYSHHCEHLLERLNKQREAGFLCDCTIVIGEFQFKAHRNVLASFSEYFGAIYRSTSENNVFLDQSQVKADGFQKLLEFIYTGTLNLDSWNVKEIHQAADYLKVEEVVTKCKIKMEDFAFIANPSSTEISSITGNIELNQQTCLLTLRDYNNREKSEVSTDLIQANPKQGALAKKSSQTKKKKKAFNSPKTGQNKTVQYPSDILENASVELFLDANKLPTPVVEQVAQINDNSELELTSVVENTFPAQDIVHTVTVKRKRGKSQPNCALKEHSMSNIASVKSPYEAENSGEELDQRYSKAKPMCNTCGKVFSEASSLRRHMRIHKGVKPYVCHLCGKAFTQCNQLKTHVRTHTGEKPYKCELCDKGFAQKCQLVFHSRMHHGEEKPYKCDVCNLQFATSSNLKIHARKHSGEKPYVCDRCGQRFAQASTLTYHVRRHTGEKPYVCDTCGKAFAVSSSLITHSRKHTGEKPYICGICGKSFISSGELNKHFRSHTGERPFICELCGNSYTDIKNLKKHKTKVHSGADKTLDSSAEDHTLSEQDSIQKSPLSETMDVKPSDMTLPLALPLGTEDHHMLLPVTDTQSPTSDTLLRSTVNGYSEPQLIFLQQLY

Compound in the next experiment: O=C(CCCCCCC(=O)Nc1ccccc1)NO [vorinostat]
Summed up:
as §1

Compound in the next experiment: O=C(O)c1ccc2c(c1)nc(Nc1cccc(Cl)c1)c1ccncc12 [silmitasertib]
Summed up:
as §1

Compound in experiment [2]: O=C1NC(=O)C(c2cnc3ccccn23)=C1c1cn2c3c(cc(F)cc13)CN(C(=O)N1CCCCC1)CC2
In outline:
as §1

Compound in a further experiment: c1cn2cc(-c3ccc4cn[nH]c4c3)nc(Nc3ccc(N4CCOCC4)cc3)c2n1 [entospletinib]
Summed up:
as §1

The other results are listed elsewhere or left out.

The results in this text go back to the supplement of paper PMC10849652.

On to NAA11 (UniProt Q9BSU3), for which the log2 fold change was inactive: 0.023 in experiment [1]; inactive: -0.014 in the experiment with vorinostat; inactive: -0.014 with silmitasertib; inactive: 0.036 in experiment [2]; inactive: -0.008 with entospletinib.

With NAT14 (UniProt Q8WUY8), the log2 fold change in experiment [1] is inactive: -0.026; in the experiment with vorinostat it was inactive: 0.004; with silmitasertib, inactive: 0.106; in experiment [2] it was inactive: 0.047; with entospletinib, inactive: -0.024.

Turning to MYH9 (UniProt P35579), the log2 fold change is inactive: 0.017 in experiment [1]; inactive: 0.022 with vorinostat; inactive: -0.008 with silmitasertib; inactive: 0.005 in experiment [2]; inactive: -0.01 with entospletinib.

Turning to NCLN (UniProt Q969V3), the log2 fold change in experiment [1] is inactive: -0.004; with vorinostat, inactive: 0.137; in the experiment with silmitasertib, inactive: 0.024; in experiment [2], inactive: -0.009; with entospletinib it was inactive: -0.003.

MUCL1 (UniProt Q96DR8): the log2 fold change in experiment [1] was inactive: 0.244; with vorinostat, inactive: 0.599; in the experiment with silmitasertib it was inactive: -0.233; in experiment [2], inactive: 0.283; with entospletinib, inactive: -0.165.

As for NANP (UniProt Q8TBE9), the log2 fold change was inactive: -0.07 in experiment [1]; inactive: -0.158 in the experiment with vorinostat; inactive: 0.179 with silmitasertib; inactive: -0.043 in experiment [2]; inactive: 0.019 in the experiment with entospletinib.

As to NCOA1 isoform 2 (UniProt Q15788), the log2 fold change in experiment [1] was inactive: -0.08; with vorinostat it was inactive: -0.304; in the experiment with silmitasertib, inactive: 0.075.

Consider NBDY, A0A0U1RRE5, for which the log2 fold change in experiment [1] was inactive: -0.038; in the experiment with vorinostat, inactive: 0.189; with silmitasertib it was inactive: -0.171; in experiment [2] it was inactive: 0.131.

Regarding NCOA6 (UniProt Q14686), the log2 fold change is inactive: 0.026 in experiment [1]; inactive: -0.018 with vorinostat; inactive: -0.007 with silmitasertib; inactive: 0.009 in experiment [2]; inactive: -0.04 in the experiment with entospletinib.

With NAMPT (UniProt P43490), the log2 fold change in experiment [1] is inactive: -0.023; with vorinostat it was inactive: 0.097; with silmitasertib, inactive: -0.012; in experiment [2], inactive: 0.014; with entospletinib, inactive: 0.012.

Regarding NCOR2 (UniProt C9J0Q5), the log2 fold change was inactive: 0.093 in experiment [1]; active: -0.27 with vorinostat; inactive: -0.016 with silmitasertib; inactive: 0.011 in experiment [2]; inactive: -0.074 with entospletinib.

With MYO9A isoform 4 (UniProt B2RTY4), the log2 fold change in experiment [1] was inactive: -0.051; with vorinostat, inactive: 0.084; with silmitasertib, inactive: -0.019; in experiment [2], inactive: -0.03.

Regarding NAA15 (UniProt Q9BXJ9), the log2 fold change in experiment [1] is inactive: -0.011; with vorinostat, inactive: -0.139; with silmitasertib, inactive: 0.029; in experiment [2], inactive: 0.014; in the experiment with entospletinib it was inactive: 0.

In the case of MVB12A (UniProt Q96EY5), the log2 fold change is inactive: -0.002 in experiment [1]; active: -0.812 in the experiment with vorinostat; inactive: -0.016 in the experiment with silmitasertib; inactive: 0.016 in experiment [2]; inactive: 0.042 with entospletinib.

As for MYSM1 (UniProt Q5VVJ2), the log2 fold change was inactive: 0.046 in experiment [1]; inactive: -0.242 with vorinostat; inactive: 0.014 in the experiment with silmitasertib; inactive: -0.062 in experiment [2]; inactive: -0.011 with entospletinib.

For N4BP2 (UniProt Q86UW6), the log2 fold change in experiment [1] is inactive: -0.075; with vorinostat it was active: -0.369; with silmitasertib, inactive: -0.004; in experiment [2], inactive: -0.001; in the experiment with entospletinib, inactive: -0.029.

As to NCL (UniProt P19338), the log2 fold change in experiment [1] was inactive: 0.016; with vorinostat, inactive: 0.198; in the experiment with silmitasertib, inactive: -0.004; in experiment [2], inactive: 0.01; with entospletinib it was inactive: 0.009.

For the target NAGPA (UniProt Q9UK23), the figures for the log2 fold change (in experiment [1]; with vorinostat; with silmitasertib) were inactive: 0.132, inactive: 0.082 and inactive: -0.059, respectively.

With MYH3 (UniProt P11055), the log2 fold change in experiment [1] is inactive: -0.064; in the experiment with vorinostat, inactive: 0.141; with silmitasertib, inactive: -0.052.

For the target NAA20 (UniProt P61599), the log2 fold change is inactive: -0.093 in experiment [1]; inactive: 0.029 in the experiment with vorinostat; inactive: 0.022 with silmitasertib; inactive: 0 in experiment [2]; inactive: -0.025 with entospletinib.

Turning to MYD88 isoform 6 (UniProt Q99836), the log2 fold change in experiment [1] was inactive: -0.005; with vorinostat, active: -0.366; in the experiment with silmitasertib it was inactive: 0.023; in experiment [2], inactive: -0.05; with entospletinib it was inactive: 0.033.

As for MYO6 isoform 6 (UniProt Q9UM54), the log2 fold change is inactive: -0.019 in experiment [1]; inactive: -0.037 in the experiment with vorinostat; inactive: 0.014 with silmitasertib; inactive: 0.023 in experiment [2]; inactive: -0.001 with entospletinib.

Turning to NCAPH2 (UniProt Q6IBW4), the log2 fold change was inactive: 0.052 in experiment [1]; active: -0.277 with vorinostat; inactive: 0 with silmitasertib; inactive: 0.037 in experiment [2]; inactive: -0.008 with entospletinib.

In the case of MYNN (UniProt Q9NPC7), the results for the log2 fold change (in experiment [1]; in the experiment with vorinostat; with silmitasertib) were inactive: -0.023, inactive: 0.175 and inactive: -0.221, respectively.

As to MUL1 (UniProt Q969V5), the log2 fold change in experiment [1] is inactive: 0; in the experiment with vorinostat it was inactive: 0.094; with silmitasertib, inactive: 0.027; in experiment [2], inactive: -0.112; in the experiment with entospletinib, inactive: 0.014.

Take NCAPD2 (UniProt Q15021): the log2 fold change was inactive: -0.01 in experiment [1]; active: -0.332 in the experiment with vorinostat; inactive: 0.01 with silmitasertib; inactive: -0.005 in experiment [2]; inactive: -0.001 in the experiment with entospletinib.
